# Measurements reported in patent publication US11220671B2, “Methods for the maturation of cardiomyocytes on amniotic fluid cell-derived ECM, cellular constructs, and uses for cardiotoxicity and proarrhythmic screening of drug compounds” (STEMBIOSYS, INC., priority 2019, dated 2022).
# B1: T-complex protein 1 subunit delta (protein, UniProt P50991 2-539, looked up)
# T-complex protein 1 subunit …: PENVAPRSGATAGAAGGRGKGAYQDRDKPAQIRFSNISAAKAVADAIRTSLGPKGMDKMIQDGKGDVTITNDGATILKQMQVLHPAARMLVELSKAQDIEAGDGTTSVVIIAGSLLDSCTKLLQKGIHPTIISESFQKALEKGIEILTDMSRPVELSDRETLLNSATTSLNSKVVSQYSSLLSPMSVNAVMKVIDPATATSVDLRDIKIVKKLGGTIDDCELVEGLVLTQKVSNSGITRVEKAKIGLIQFCLSAPKTDMDNQIVVSDYAQMDRVLREERAYILNLVKQIKKTGCNVLLIQKSILRDALSDLALHFLNKMKIMVIKDIEREDIEFICKTIGTKPVAHIDQFTADMLGSAELAEEVNLNGSGKLLKITGCASPGKTVTIVVRGSNKLVIEEAERSIHDALCVIRCLVKKRALIAGGGAPEIELALRLTEYSRTLSGMESYCVRAFADAMEVIPSTLAENAGLNPISTVTELRNRHAQGEKTAGINVRKGGISNILEELVVQPLLVSVSALTLATETVRSILKIDDVVNTR
# B2: Far upstream element-binding protein 1 (protein, UniProt Q96AE4 2-644, looked up)
# Far upstream element-binding …: ADYSTVPPPSSGSAGGGGGGGGGGGVNDAFKDALQRARQIAAKIGGDAGTSLNSNDYGYGGQKRPLEDGDQPDAKKVAPQNDSFGTQLPPMHQQQSRSVMTEEYKVPDGMVGFIIGRGGEQISRIQQESGCKIQIAPDSGGLPERSCMLTGTPESVQSAKRLLDQIVEKGRPAPGFHHGDGPGNAVQEIMIPASKAGLVIGKGGETIKQLQERAGVKMVMIQDGPQNTGADKPLRITGDPYKVQQAKEMVLELIRDQGGFREVRNEYGSRIGGNEGIDVPIPRFAVGIVIGRNGEMIKKIQNDAGVRIQFKPDDGTTPERIAQITGPPDRCQHAAEIITDLLRSVQAGNPGGPGPGGRGRGRGQGNWNMGPPGGLQEFNFIVPTGKTGLIIGKGGETIKSISQQSGARIELQRNPPPNADPNMKLFTIRGTPQQIDYARQLIEEKIGGPVNPLGPPVPHGPHGVPGPHGPPGPPGPGTPMGPYNPAPYNPGPPGPAPHGPPAPYAPQGWGNAYPHWQQQAPPDPAKAGTDPNSAAWAAYYAHYYQQQAQPPPAAPAGAPTTTQTNGQGDQQNPAPAGQVDYTKAWEEYYKKMGQAVPAPTGAPPGGQPDYSAAWAEYYRQQAAYYAQTSPQGMPQHPPAPQGQ
# B3: TREMBL: Q0IIK2 (Bos taurus) Transferrin (protein, UniProt Q29443 20-704, looked up)
# Serotransferrin: DPERTVRWCTISTHEANKCASFRENVLRILESGPFVSCVKKTSHMDCIKAISNNEADAVTLDGGLVYEAGLKPNNLKPVVAEFHGTKDNPQTHYYAVAVVKKDTDFKLNELRGKKSCHTGLGRSAGWNIPMAKLYKELPDPQESIQRAAANFFSASCVPCADQSSFPKLCQLCAGKGTDKCACSNHEPYFGYSGAFKCLMEGAGDVAFVKHSTVFDNLPNPEDRKNYELLCGDNTRKSVDDYQECYLAMVPSHAVVARTVGGKEDVIWELLNHAQEHFGKDKPDNFQLFQSPHGKDLLFKDSADGFLKIPSKMDFELYLGYEYVTALQNLRESKPPDSSKDECMVKWCAIGHQERTKCDRWSGFSGGAIECETAENTEECIAKIMKGEADAMSLDGGYLYIAGKCGLVPVLAENYKTEGESCKNTPEKGYLAVAVVKTSDANINWNNLKDKKSCHTAVDRTAGWNIPMGLLYSKINNCKFDEFFSAGCAPGSPRNSSLCALCIGSEKGTGKECVPNSNERYYGYTGAFRCLVEKGDVAFVKDQTVIQNTDGNNNEAWAKNLKKENFEVLCKDGTRKPVTDAENCHLARGPNHAVVSRKDKATCVEKILNKQQDDFGKSVTDCTSNFCLFQSNSKDLLFRDDTKCLASIAKKTYDSYLGDDYVRAMTNLRQCSTSKLLEACTFHKP
# Test: Composition of amniotic fluid cell-derived ECM by mass spectrometry (total spectra count)
# [1] = protein component found by mass spectrometry in amniotic fluid cell-derived ECM Matrix A (Example 1)
# [2] = protein component found by mass spectrometry in amniotic fluid cell-derived ECM Matrix B (Example 1)
# [3] = protein component found by mass spectrometry in amniotic fluid cell-derived ECM Matrix C (Example 1)
# [4] = protein component found by mass spectrometry in amniotic fluid cell-derived ECM Matrix D (Example 1)
Molecule,Total Spectra Count Matrix A [1],Total Spectra Count Matrix B [2],Total Spectra Count Matrix C [3],Total Spectra Count Matrix D [4],"Total Spectra Count Matrix A (amniotic fluid cell-derived ECM Matrix A, mass spectrometry, label = protein component)","Total Spectra Count Matrix B (amniotic fluid cell-derived ECM Matrix B, mass spectrometry, label = protein component)","Total Spectra Count Matrix C (amniotic fluid cell-derived ECM Matrix C, mass spectrometry, label = protein component)","Total Spectra Count Matrix D (amniotic fluid cell-derived ECM Matrix D, mass spectrometry, label = protein component)"
B1,27,73,19,26,,,,
B2,,,,,0,3,0,1
B3,29,15,2,16,,,,
